Reference: patent US20190100594A1

B1: hzC06v3.1 (VHH)
VHH: EVQLLESGGGEVQPGGSLRLSCAASGSVFSIDAMGWYRLAPGQQRELVAVLSGISSAKYAESVKGRFTISRDNAKNTLYLQMSSLRAEDTAVYYCYADVSTGWGRDAHGYWGQGTLVTV
B2: hzC06v1.1 (VHH)
VHH: B1 VHH with L39Q, Q43K, Q44G, R45L, A49S, V50A, K58T
B3: hzC06v3.8 (VHH)
VHH: B1 VHH with L39Q, Q43K, E61A, V63A, K64P, N73A, A74V, K75E, L78V
B4: hzC06v3.12 (VHH)
VHH: B1 VHH with L39Q, Q43K, E61A, V63A, K64P, D72A, N73S, K75P, L78V
B5: hzC06v3.11 (VHH)
VHH: B1 VHH with L39Q, Q43K, E61D, S62A, K64E, D72A, N73S, K75P, L78V
B6: hzC06v3.5 (VHH)
VHH: B1 VHH with L39Q, Q43K, D72A, N73S, K75P
B7: hzC06v3.3 (VHH)
VHH: B1 VHH with L39Q, Q43K, N73S, T77A, L78V, S83D, S84G, R86K, A87P
B8: hzC06v3.10 (VHH)
VHH: B1 VHH with L39Q, Q43K, E61D, S62A, D72A, N73S, K75P, L78V
B9: hzC06v3.4 (VHH)
VHH: B1 VHH with L39Q, Q43K, L78V
B10: hzC06v2.4 (VHH)
VHH: B1 VHH with L39Q, K58T
B11: hzC06v1.4 (VHH)
VHH: B1 VHH with L39Q, A49S, V50A, K58T
B12: hzC06v1.3 (VHH)
VHH: B1 VHH with L39Q, Q43K, A49S, V50A, K58T
B13: hzC06v2.1 (VHH)
VHH: B1 VHH with L39Q, Q43K, Q44G, R45L, K58T
B14: hzC06v2.3 (VHH)
VHH: B1 VHH with L39Q, Q43K, K58T
B15: hzC06v2.2 (VHH)
VHH: B1 VHH with L39Q, Q43K, Q44G, K58T
B16: hzC06v3.6 (VHH)
VHH: B1 VHH with L39Q, Q43K, D72A, N73S, K75P, L78V
B17: hzC06v3.7 (VHH)
VHH: B1 VHH with L39Q, Q43K, E61A, V63A, K64P, N73A, A74V, L78V
B18: hzC06v3 (VHH)
VHH: B1 VHH with L39Q, Q43K
B19: hzC06v3.2 (VHH)
VHH: B1 VHH with L39Q, Q43K, E61D, R71G
B20: hzC06v1.2 (VHH)
VHH: B1 VHH with L39Q, Q43K, Q44G, A49S, V50A, K58T
B21: hzC06v3.9 (VHH)
VHH: B1 VHH with L39Q, Q43K, E61A, V63A, K64P, L78V
B22: hzCC04v5 (VHH)
VHH: EVQLLESGGGEVQPGGSLRLSCAASGFTFSTHGMDWFRQAPGKDLEWVSAIQSGGSWTSYASSVKGRFTISRDNAKNTLYLQMSSLRAEDTAVYWCQNRVTRGQGTLVTV
B23: hzCC04v5.9 (VHH)
VHH: B22 VHH with S84D, S85D
B24: hzCC04v5.10 (VHH)
VHH: B22 VHH with S84Q, S85D
B25: hzCC04v5.8 (VHH)
VHH: B22 VHH with S84N, S85D
B26: hzCC04v5.3 (VHH)
VHH: B22 VHH with Q82E
B27: hzCC04v1.2.1 (VHH)
VHH: B22 VHH with Q52N, S53Q, W95Y
B28: hzCC04v5.2 (VHH)
VHH: B22 VHH with S84N, S85N
B29: hzCC04v5.7 (VHH)
VHH: B22 VHH with S84D, S85N
B30: hzCC04v5.12 (VHH)
VHH: B22 VHH with S85N
B31: hzCC04v5.6 (VHH)
VHH: B22 VHH with S84Q, S85N
B32: hzCC04v5.5 (VHH)
VHH: B22 VHH with S84Q, S85Q
B33: hzCC04v5.11 (VHH)
VHH: B22 VHH with S84N, S85Q
B34: hzCC04v5.1 (VHH)
VHH: B22 VHH with Q82E, S84N, S85N, R87K, A88P
B35: hzCC04v5.4 (VHH)
VHH: B22 VHH with A88P

target: cyno GITR-CHO (cynomolgus monkey); assay: flow cytometry on cyno GITR-CHO cells

binding | Binder
binds | B1
binds | B2
binds | B3
binds | B4
binds | B5
binds | B6
binds | B7
binds | B8
binds | B9
binds | B10
binds | B11
binds | B12
binds | B13
binds | B14
binds | B15
binds | B16
binds | B17
binds | B18

binding | Binder
binds | B19
binds | B20
binds | B21
binds | B22
binds | B23
binds | B24
binds | B25
binds | B26
binds | B27
binds | B28
binds | B29
binds | B30
binds | B31
binds | B32
binds | B33
binds | B34
binds | B35

Residue numbers refer to the chain shown, from its start. These are yes or no findings as the source states them, for the method shown. A result given as binding can be weak or reduced; the word gives no strength.
